Some results were stated once for a whole list of compounds, not compound by compound.
Target: T1, recombinant Vps34 (Homo sapiens, UniProt Q8NEB9)
T1 construct: purchased Invitrogen PV5126
Assay: Phosphorylation of phosphatidylinositol (PI) by Vps34 in vitro, ADP detected by TR-FRET (HTRF Transcreener ADP)
Format: biochemical
Conditions: 10 μM ATP, 55 μg/ml PI, approximately 3 nM Vps34, 1 hour at ambient temperature; absolute IC50, mean of two independent experiments; read-out: IC50 activity range

Protein sequences, listed by entry. Tags and fused reporters are not part of them.
UniProt Q8NEB9, whole entry: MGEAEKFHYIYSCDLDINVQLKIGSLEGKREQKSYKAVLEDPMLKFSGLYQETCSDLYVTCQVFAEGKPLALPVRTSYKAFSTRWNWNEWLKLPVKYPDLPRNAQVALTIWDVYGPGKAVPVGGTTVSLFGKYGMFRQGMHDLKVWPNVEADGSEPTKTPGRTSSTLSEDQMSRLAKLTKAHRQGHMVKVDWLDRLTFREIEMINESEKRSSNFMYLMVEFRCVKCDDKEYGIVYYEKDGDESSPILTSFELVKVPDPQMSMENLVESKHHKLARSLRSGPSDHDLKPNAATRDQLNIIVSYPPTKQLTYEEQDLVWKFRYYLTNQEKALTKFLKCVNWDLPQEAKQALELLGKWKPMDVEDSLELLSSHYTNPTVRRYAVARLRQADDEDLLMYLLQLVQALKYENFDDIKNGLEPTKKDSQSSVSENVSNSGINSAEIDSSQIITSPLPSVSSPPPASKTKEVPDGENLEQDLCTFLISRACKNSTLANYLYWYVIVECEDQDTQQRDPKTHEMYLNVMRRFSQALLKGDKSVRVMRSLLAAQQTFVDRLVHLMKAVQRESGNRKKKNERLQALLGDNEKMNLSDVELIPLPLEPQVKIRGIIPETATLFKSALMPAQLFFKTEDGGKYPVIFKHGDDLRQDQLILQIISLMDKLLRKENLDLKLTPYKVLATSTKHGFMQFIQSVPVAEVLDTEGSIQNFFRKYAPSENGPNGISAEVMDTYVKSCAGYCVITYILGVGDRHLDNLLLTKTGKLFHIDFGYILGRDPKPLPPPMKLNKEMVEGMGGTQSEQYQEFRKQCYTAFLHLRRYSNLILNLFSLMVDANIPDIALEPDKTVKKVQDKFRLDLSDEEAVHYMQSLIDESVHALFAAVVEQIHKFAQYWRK

Substance: (R)-9-Isoxazol-3-yl- methyl-2-((R)-3- methylmorpholin-4-yl)- 6-trifluoromethyl- 6,7,8,9-tetrahydro- pyrimido[1,2-a]- pyrimidin-4-one [Example 106]
- IC50: 10 to 100 nM

— patent US11739100B2, “2,3-dihydro-1h-imidazo{1,2-a}pyrimidin-5-one and this 1,2,3,4-tetrahydropyrimido{1,2-a}pyrimidin-6-one derivatives comprising a substituted morpholine, preparation thereof and pharmaceutical use thereof” (SANOFI, priority 2012, dated 2023)
